Laboratory results as given in PubChem BioAssay AID2685 (National Center for Advancing Translational Sciences (NCATS), 2010).
Some of the results follow. Shown are side measurements of this screen, not its main read-out; they come without a call. The list favours compounds with an active or inconclusive main result. The note in brackets gives the kind of curve behind each potency; many fits are weak.

Test: qHTS Assay for Lipid Storage Modulators in Drosophila S3 Cells;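 for cell number change: cells counted by Cell Tracker Red CMTPX staining in the red channel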
Details: BODIPY lipid droplet fluorescence, 18-24 h; for cell number change: measured here: cell count max response, cells fed with added oleic acid
Procedure, shortened: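 Laser-scanning cytometry quantifies lipid droplet accumulation (500–530 nm total intensity; droplet/cell object ratio) in oleic acid-fed (400 uM added) Drosophila S3 cells treated with a concentration series. 20 uM Triacsin C defined 100% inhibition.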

[1] = measured here: cell number channel AC50, cells fed with added oleic acid
[2] = measured here: lipid fluorescence (Fed channel) AC50, cells fed with added oleic acid

Row | Structure (SMILES) | cell number change [%] | AC50 [1] | AC50 [2]
1 | COc1cccc(N2CCN(C3OC(=O)c4ccccc43)CC2)c1 (stereo unspecified) | 13.3 |  | 
2 | CCN(CC)S(=O)(=O)c1cccc(C(=O)Oc2cccc(NC(=O)c3cccs3)c2)c1 | 85.4 | 3.66 µM [rising, full curve] | 4.61 µM [rising, full curve]
3 | Cc1ccc(C)c(NC(=S)NCCCN2CCOCC2)c1 | -5.81 | 0.103 µM [falling, full curve, poor fit] | 6.51 µM [falling, single point]
4 | O=C(c1ccccc1Oc1ccc([N+](=O)[O-])cc1)N1CCOCC1 | -7.91 |  | 
5 | COc1cc(C(=O)NCC(=O)N/N=C/c2ccc(OC(=O)c3ccco3)cc2)cc(OC)c1OC | -33.4 |  | 0.82 µM [falling, full curve, poor fit]
6 | COc1ccc(COC(=O)c2cccc(S(=O)(=O)N3CCN(C(C)=O)CC3)c2)cc1F | 0.694 | 6.51 µM [falling, single point] | 6.51 µM [falling, single point]
7 | COc1ccc(OC)c(-n2c(SCC(=O)NCc3ccco3)nnc2-c2c[nH]c3ccccc23)c1 | -31.1 | 0.411 µM [falling, full curve, poor fit] | 1.03 µM [falling, partial curve]
8 | CCCCn1c(N)c(N(CC(C)C)C(=O)C2CCN(S(=O)(=O)c3ccc(F)cc3)CC2)c(=O)[nH]c1=O | -0.567 |  | 29.1 µM [rising, single point]
9 | O=C(NC1CCCCC1)C1CC(=O)N(c2ccccc2)C1 (stereo unspecified) | -20.5 |  | 6.51 µM [rising, single point]
10 | O=C(Cc1cccs1)Nc1ccc(S(=O)(=O)N2CCCCC2)cc1 | -143 | 29.1 µM [falling, single point] | 
11 | CCN(CC)c1ccc(NC(=O)c2ccc3c(c2)OCO3)c(C)c1 | 7.73 |  | 0.116 µM [rising, full curve, poor fit]
12 | O=C(Nc1ccccc1Cl)C1CCN(Cc2cnn(-c3ccccc3)c2-n2cccc2)CC1 | 37.1 | 32.6 µM [rising, single point] | 
13 | Nc1c(C(=O)NCc2ccc3c(c2)OCO3)nnn1CC(=O)Nc1ccc(Br)cc1 | 7.58 |  | 4.61 µM [falling, single point]
14 | COc1ccc2c(c1)CC/C(=C/c1ccco1)C2=O | 11.6 | 1.64 µM [falling, partial curve, poor fit] | 29.1 µM [rising, single point]
15 | Cc1ccc(C)c(NS(=O)(=O)c2c(C)ccc3nsnc23)c1 | -7.86 |  | 0.206 µM [rising, partial curve]
16 | CC(OC(=O)CC(NC(=O)c1ccccc1Cl)c1ccccc1)C(=O)Nc1cccc(Cl)c1Cl (stereo unspecified) | 17.1 | 4.11 µM [rising, partial curve] | 0.461 µM [rising, full curve, poor fit]

Excerpt, compounds 11 to 16
Row | Structure (SMILES) | cell number change [%] | AC50 [1] | AC50 [2]
11 | CCN(CC)c1ccc(NC(=O)c2ccc3c(c2)OCO3)c(C)c1 | 7.73 |  | 0.116 µM [rising, full curve, poor fit]
12 | O=C(Nc1ccccc1Cl)C1CCN(Cc2cnn(-c3ccccc3)c2-n2cccc2)CC1 | 37.1 | 32.6 µM [rising, single point] | 
13 | Nc1c(C(=O)NCc2ccc3c(c2)OCO3)nnn1CC(=O)Nc1ccc(Br)cc1 | 7.58 |  | 4.61 µM [falling, single point]
14 | COc1ccc2c(c1)CC/C(=C/c1ccco1)C2=O | 11.6 | 1.64 µM [falling, partial curve, poor fit] | 29.1 µM [rising, single point]
15 | Cc1ccc(C)c(NS(=O)(=O)c2c(C)ccc3nsnc23)c1 | -7.86 |  | 0.206 µM [rising, partial curve]
16 | CC(OC(=O)CC(NC(=O)c1ccccc1Cl)c1ccccc1)C(=O)Nc1cccc(Cl)c1Cl (stereo unspecified) | 17.1 | 4.11 µM [rising, partial curve] | 0.461 µM [rising, full curve, poor fit]

Next part:

Row | Structure (SMILES) | cell number change [%] | AC50 [1] | AC50 [2]
17 | COc1cccc(-c2nnc(NC(=O)c3ccc(Cl)s3)o2)c1 | -16 |  | 18.4 µM [falling, single point]
18 | C/C=C/c1ccc(OCCCN2C(=O)NC(C)(C)C2=O)c(OC)c1 | -2.37 |  | 6.51 µM [rising, single point]
19 | O=C(/C=C\c1ccccc1OC(=O)c1ccccc1F)c1cc2ccccc2o1 | -40.3 | 5.8 µM [falling, partial curve] | 2.91 µM [falling, full curve]
20 | CC(C)(C)OC(=O)NOCC(=O)N(Cc1ccccc1)CC(O)COc1ccccc1 (stereo unspecified) |  |  | 5.8 µM [falling, partial curve]
21 | COc1ccc(C)cc1NS(=O)(=O)c1ccc(NC(=O)CN(c2cc([N+](=O)[O-])ccc2C)S(C)(=O)=O)cc1 | -18.4 |  | 23.1 µM [falling, single point]
22 | Cc1ccc(C(O)c2ccc(-n3ccnc3)cc2)cc1 (stereo unspecified) | 9.24 |  | 0.731 µM [rising, partial curve]
23 | COc1ccc(C(=O)NNC(=O)CN2CCC(n3nnc4cc(F)ccc43)CC2)cc1 | 4.41 |  | 10.3 µM [rising, partial curve, poor fit]
24 | CC(=O)N1CCCc2cc(S(=O)(=O)N3CCCC(C(=O)NCc4ccccc4)C3)ccc21 (stereo unspecified) | -14.4 | 0.092 µM [falling, full curve, poor fit] | 
25 | CC(=O)N1CCN(S(=O)(=O)c2cccc(C(=O)Nc3ccc4c(c3)CCC4)c2)CC1 | -15 |  | 13 µM [falling, partial curve, poor fit]
26 | Cc1cc(OCC(=O)NCc2ccccn2)c2c(C)c(Cc3ccccc3)c(=O)oc2c1 | -20.6 |  | 1.84 µM [falling, partial curve]
27 | CC(=O)Nc1ccc(S(=O)(=O)Nc2nc3ccccc3s2)cc1 |  |  | 18.4 µM [falling, partial curve]
28 | COc1cccc(NC(=O)c2nc(S(C)(=O)=O)ncc2Cl)c1 | -4.44 | 4.11 µM [falling, single point] | 0.92 µM [falling, full curve]
29 | CC(=O)N1[C@H](Cc2ccccc2)C=C[C@]1(C)C(=O)NCCN1CCOCC1 | 17.1 |  | 
30 | CCc1ccc(-c2cc(C)no2)cc1S(=O)(=O)Nc1ccc(Cl)cn1 | 9.73 |  | 6.51 µM [falling, single point]
31 | Cn1c(COc2ccc(Cl)cc2)nnc1SCc1ncc(-c2ccccc2)o1 | -32.2 | 13 µM [falling, partial curve] | 20.6 µM [falling, partial curve, poor fit]
